Reference: patent US20220153851A1
Results are given in words; binding and its absence hold for the method and conditions named. Some entries that bind do so weakly or less than the wild type.

Protein sequences, listed by entry. Tags and fused reporters are not part of them. Lines headed by an entry give the natural chain unless they say otherwise; changes in a name come on top.
UniProt P07333: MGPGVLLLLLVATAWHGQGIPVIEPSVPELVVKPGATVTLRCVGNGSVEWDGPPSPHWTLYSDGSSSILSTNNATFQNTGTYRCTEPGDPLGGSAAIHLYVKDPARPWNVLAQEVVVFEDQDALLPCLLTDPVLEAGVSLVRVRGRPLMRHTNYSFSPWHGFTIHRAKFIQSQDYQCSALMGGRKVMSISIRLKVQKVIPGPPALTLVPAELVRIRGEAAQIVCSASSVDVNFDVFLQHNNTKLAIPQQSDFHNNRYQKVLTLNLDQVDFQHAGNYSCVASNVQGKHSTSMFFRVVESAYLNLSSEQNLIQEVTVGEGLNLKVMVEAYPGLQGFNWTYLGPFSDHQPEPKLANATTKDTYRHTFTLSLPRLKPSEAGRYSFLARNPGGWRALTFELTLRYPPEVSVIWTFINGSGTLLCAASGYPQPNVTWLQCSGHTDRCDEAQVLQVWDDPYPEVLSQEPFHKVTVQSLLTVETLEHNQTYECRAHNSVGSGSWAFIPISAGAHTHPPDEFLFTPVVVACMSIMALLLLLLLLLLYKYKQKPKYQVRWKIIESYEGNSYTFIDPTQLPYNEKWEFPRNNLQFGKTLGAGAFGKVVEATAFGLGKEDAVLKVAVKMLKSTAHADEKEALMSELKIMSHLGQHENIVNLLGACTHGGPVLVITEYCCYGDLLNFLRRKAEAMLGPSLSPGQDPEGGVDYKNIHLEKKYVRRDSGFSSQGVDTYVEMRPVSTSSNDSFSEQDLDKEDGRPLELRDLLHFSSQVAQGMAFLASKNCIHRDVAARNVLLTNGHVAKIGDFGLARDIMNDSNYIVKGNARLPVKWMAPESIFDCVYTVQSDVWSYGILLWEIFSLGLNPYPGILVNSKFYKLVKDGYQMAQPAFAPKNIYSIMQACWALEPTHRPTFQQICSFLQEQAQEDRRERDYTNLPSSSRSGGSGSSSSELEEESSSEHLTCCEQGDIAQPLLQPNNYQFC

Target: human CSF1R on CSF1R (SEQ ID NO: 2)-transfected CHO cells (human) (UniProt P07333)
Assay: binding to CSF1R on the surface of cells; cells and method not named, data not shown

binding: binds
B1: h0311-L0H1 (antibody, human IgG4 S228P, kappa, V domains shown)
VH: QVQLVQSGAEVKKPGSSVKVSCKASGYIFTDYNMHWVRQAPGQGLEWMGEINPNNGVVVYNQKFKGRVTITVDKSTSTAYMELSSLRSEDTAVYYCTRALYHSNFGWYFDSWGQGTLVTVSS
VL: EIVLTQSPATLSLSPGERATLSCKASQSVDYDGDSHMNWYQQKPGQAPRLLIYTASNLESGIPARFSGSGSGTDFTLTISSLEPEDFAVYYCQQGNEDPWTFGQGTKVEIKR
